Data source: PubChem BioAssay AID1259308 (NCATS, 2017)
Aim: 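Candidate targets for better recombinant protein yield in mammalian cells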 (primary screen). Cells: human HEK293 embryonic kidney cells stably expressing firefly luciferase (HEK-CMV-Luc2-Hygro). Reagent: single siRNA against human genes, 0.8 pmol siRNA per well. Duration: 72 h. Read-out: 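Reporter luminescence and viable-cell signal on separate replicate plates, given as percent of non-targeting control and median/MAD z-scores, plus per-cell luciferase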. Direction: total luciferase, z-score and total luciferase, % of control: higher = more reporter protein produced. Active means: 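An siRNA counts as active if its total luciferase robust z-score exceeds 3; genes with two or more such siRNAs out of three were retested with fresh siRNAs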. Calls: active = raised luciferase; inactive = no rise.
The whole screen tested about 59,000 reagents; shown is a random part of them. About 1,510 of them (2.6%) count as active. 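Calls use total luciferase alone and ignore viability, so some active siRNAs may act by altering cell number.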 Unmarked entries are inactive. Reagents against one gene are numbered here. Further read-outs or replicates are left out here.

The first 2 records, to show the layout:
PLIN2 (perilipin 2) #1 — total luciferase, z-score = 0.638; total luciferase, % of control = 94.6
PLIN2 (perilipin 2) #2 — total luciferase, z-score = 0.632; total luciferase, % of control = 94.5

Main list, from the first entry:
PLIN2 (perilipin 2) #1 — total luciferase, z-score = 0.638; total luciferase, % of control = 94.6
PLIN2 (perilipin 2) #2 — total luciferase, z-score = 0.632; total luciferase, % of control = 94.5
PLIN2 (perilipin 2) #3 — total luciferase, z-score = -0.328; total luciferase, % of control = 75.4
ITGAL (integrin subunit alpha L) #1 — total luciferase, z-score = 1.73; total luciferase, % of control = 116
ITGAL (integrin subunit alpha L) #2 — total luciferase, z-score = -0.692; total luciferase, % of control = 68.1
ITGAL (integrin subunit alpha L) #3 — total luciferase, z-score = -2.36; total luciferase, % of control = 34.9
IFI44 (interferon induced protein 44) #1 — total luciferase, z-score = 1.42; total luciferase, % of control = 110
IFI44 (interferon induced protein 44) #2 — total luciferase, z-score = -0.0344; total luciferase, % of control = 81.2
IFI44 (interferon induced protein 44) #3 — total luciferase, z-score = 0.0294; total luciferase, % of control = 82.5
TAFA2 (TAFA chemokine like family member 2) #1 — total luciferase, z-score = 0.881; total luciferase, % of control = 99.4
TAFA2 (TAFA chemokine like family member 2) #2 — total luciferase, z-score = -1.06; total luciferase, % of control = 60.9
TAFA2 (TAFA chemokine like family member 2) #3 — total luciferase, z-score = -1.83; total luciferase, % of control = 45.5
LYPD5 (LY6/PLAUR domain containing 5) #1 — total luciferase, z-score = -0.0614; total luciferase, % of control = 80.7
LYPD5 (LY6/PLAUR domain containing 5) #2 — total luciferase, z-score = -2.68; total luciferase, % of control = 28.6
LYPD5 (LY6/PLAUR domain containing 5) #3 — total luciferase, z-score = 2.49; total luciferase, % of control = 131
SLC1A4 #1 — total luciferase, z-score = -1.84; total luciferase, % of control = 45.3
SLC1A4 #2 — total luciferase, z-score = 1.33; total luciferase, % of control = 108
SLC1A4 #3 — total luciferase, z-score = -0.663; total luciferase, % of control = 68.7
CLCN4 (Cl-/H+ antiporter 4) #1 — total luciferase, z-score = -0.183; total luciferase, % of control = 78.2
CLCN4 (Cl-/H+ antiporter 4) #2 — total luciferase, z-score = 2.02; total luciferase, % of control = 122
CLCN4 (Cl-/H+ antiporter 4) #3 — total luciferase, z-score = 0.394; total luciferase, % of control = 89.7
TRIM64 (tripartite motif containing 64) #1 — total luciferase, z-score = 0.861; total luciferase, % of control = 99
TRIM64 (tripartite motif containing 64) #2 — total luciferase, z-score = 0.305; total luciferase, % of control = 88
TRIM64 (tripartite motif containing 64) #3 — total luciferase, z-score = -1.44; total luciferase, % of control = 53.2
BST2 (bone marrow stromal cell antigen 2) #1 — total luciferase, z-score = -2.11; total luciferase, % of control = 40
BST2 (bone marrow stromal cell antigen 2) #2 — total luciferase, z-score = 0.633; total luciferase, % of control = 94.5
BST2 (bone marrow stromal cell antigen 2) #3 — total luciferase, z-score = 1.36; total luciferase, % of control = 109
SMIM43 (small integral membrane protein 43) #1 — total luciferase, z-score = 0.706; total luciferase, % of control = 95.9
SMIM43 (small integral membrane protein 43) #2 — total luciferase, z-score = -1.16; total luciferase, % of control = 58.9
SMIM43 (small integral membrane protein 43) #3 — total luciferase, z-score = 1.05; total luciferase, % of control = 103
VPS33B (VPS33B late endosome and lysosome associated) #1 — total luciferase, z-score = 0.238; total luciferase, % of control = 86.6
VPS33B (VPS33B late endosome and lysosome associated) #2 — total luciferase, z-score = 0.321; total luciferase, % of control = 88.3
VPS33B (VPS33B late endosome and lysosome associated) #3 — total luciferase, z-score = 3.19 (active); total luciferase, % of control = 145
